In US20190127438A1:
Results are given in words; binding and its absence hold for the method and conditions named. In cells and extracts the contact can be indirect. Some results given as binding are weak or reduced against the parent protein; the word gives no strength.

Sequences of proteins named here, by UniProt entry; tags and fusion partners are left off. A change or cut given only in a name is not applied to a line headed by its entry. Residues count along the entry.
UniProt P00747: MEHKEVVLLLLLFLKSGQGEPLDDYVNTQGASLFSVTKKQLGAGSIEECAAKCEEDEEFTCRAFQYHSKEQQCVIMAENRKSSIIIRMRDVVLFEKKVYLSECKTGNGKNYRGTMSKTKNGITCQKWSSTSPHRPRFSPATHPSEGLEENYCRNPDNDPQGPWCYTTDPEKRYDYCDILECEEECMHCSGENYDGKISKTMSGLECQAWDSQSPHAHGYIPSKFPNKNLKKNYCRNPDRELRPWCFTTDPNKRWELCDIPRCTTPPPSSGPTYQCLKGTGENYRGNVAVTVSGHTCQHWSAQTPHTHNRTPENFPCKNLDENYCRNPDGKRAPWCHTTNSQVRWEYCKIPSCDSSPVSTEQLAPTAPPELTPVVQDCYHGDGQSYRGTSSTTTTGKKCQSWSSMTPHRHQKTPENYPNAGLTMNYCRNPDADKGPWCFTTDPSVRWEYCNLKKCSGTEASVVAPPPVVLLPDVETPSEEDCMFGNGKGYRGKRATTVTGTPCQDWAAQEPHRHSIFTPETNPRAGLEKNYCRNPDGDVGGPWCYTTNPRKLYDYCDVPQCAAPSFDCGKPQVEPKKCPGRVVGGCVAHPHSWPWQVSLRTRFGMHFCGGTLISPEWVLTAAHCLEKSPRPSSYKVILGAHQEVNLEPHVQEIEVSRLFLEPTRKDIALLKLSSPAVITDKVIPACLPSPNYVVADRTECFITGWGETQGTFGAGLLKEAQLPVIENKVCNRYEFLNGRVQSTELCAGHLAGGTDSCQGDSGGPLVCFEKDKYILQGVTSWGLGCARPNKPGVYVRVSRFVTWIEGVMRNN
Plasminogen: residues 20-810 of P00747
plasmin (Sigma P1867): residues 97-810 of P00747
UniProt P12319: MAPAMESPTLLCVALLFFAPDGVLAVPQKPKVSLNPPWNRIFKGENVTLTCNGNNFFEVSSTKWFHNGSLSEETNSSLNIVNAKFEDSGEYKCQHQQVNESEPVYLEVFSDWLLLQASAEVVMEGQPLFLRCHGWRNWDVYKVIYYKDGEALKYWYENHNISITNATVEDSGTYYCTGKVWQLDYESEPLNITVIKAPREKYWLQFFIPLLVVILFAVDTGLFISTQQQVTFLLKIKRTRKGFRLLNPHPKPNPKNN

Assays:
plasmin (Sigma P1867) [1] = biological target: plasmin (Sigma P1867) (UniProt P00747); assay: co-precipitation on FceRIa-coated magnetic beads, Western blot
plasmin (Sigma P1867) [2] = biological target: plasmin (Sigma P1867) (UniProt P00747); assay: co-precipitation of plasmin by FceRIa-coated magnetic beads, Western blot with anti-plasminogen antibody
plasmin (Sigma P1867) [3] = biological target: plasmin (Sigma P1867) (UniProt P00747); assay: co-precipitation on FceRIa-coated magnetic beads (50 µg FceRIa, 1 µg plasmin), Western blot with anti Plasminogen
Plasminogen (human) = Plasminogen (human) (UniProt P00747); assay: co-precipitation on FceRIa-coated beads from human serum, LC-MS/MS identification

Measured: binding

recombinant wild type FceRIa (extracellular region of the alpha chain of the human high-affinity IgE receptor, spacer, 6His) (from UniProt P12319 20-205)
binds: all assays above
